Experimental findings from paper PMC7275706 are described below.

The chains behind the UniProt entries cited, without tags or fusion partners. Where a name states a change or a piece, a line headed by the entry shows the natural chain unless it says otherwise.
UniProt Q1JT06: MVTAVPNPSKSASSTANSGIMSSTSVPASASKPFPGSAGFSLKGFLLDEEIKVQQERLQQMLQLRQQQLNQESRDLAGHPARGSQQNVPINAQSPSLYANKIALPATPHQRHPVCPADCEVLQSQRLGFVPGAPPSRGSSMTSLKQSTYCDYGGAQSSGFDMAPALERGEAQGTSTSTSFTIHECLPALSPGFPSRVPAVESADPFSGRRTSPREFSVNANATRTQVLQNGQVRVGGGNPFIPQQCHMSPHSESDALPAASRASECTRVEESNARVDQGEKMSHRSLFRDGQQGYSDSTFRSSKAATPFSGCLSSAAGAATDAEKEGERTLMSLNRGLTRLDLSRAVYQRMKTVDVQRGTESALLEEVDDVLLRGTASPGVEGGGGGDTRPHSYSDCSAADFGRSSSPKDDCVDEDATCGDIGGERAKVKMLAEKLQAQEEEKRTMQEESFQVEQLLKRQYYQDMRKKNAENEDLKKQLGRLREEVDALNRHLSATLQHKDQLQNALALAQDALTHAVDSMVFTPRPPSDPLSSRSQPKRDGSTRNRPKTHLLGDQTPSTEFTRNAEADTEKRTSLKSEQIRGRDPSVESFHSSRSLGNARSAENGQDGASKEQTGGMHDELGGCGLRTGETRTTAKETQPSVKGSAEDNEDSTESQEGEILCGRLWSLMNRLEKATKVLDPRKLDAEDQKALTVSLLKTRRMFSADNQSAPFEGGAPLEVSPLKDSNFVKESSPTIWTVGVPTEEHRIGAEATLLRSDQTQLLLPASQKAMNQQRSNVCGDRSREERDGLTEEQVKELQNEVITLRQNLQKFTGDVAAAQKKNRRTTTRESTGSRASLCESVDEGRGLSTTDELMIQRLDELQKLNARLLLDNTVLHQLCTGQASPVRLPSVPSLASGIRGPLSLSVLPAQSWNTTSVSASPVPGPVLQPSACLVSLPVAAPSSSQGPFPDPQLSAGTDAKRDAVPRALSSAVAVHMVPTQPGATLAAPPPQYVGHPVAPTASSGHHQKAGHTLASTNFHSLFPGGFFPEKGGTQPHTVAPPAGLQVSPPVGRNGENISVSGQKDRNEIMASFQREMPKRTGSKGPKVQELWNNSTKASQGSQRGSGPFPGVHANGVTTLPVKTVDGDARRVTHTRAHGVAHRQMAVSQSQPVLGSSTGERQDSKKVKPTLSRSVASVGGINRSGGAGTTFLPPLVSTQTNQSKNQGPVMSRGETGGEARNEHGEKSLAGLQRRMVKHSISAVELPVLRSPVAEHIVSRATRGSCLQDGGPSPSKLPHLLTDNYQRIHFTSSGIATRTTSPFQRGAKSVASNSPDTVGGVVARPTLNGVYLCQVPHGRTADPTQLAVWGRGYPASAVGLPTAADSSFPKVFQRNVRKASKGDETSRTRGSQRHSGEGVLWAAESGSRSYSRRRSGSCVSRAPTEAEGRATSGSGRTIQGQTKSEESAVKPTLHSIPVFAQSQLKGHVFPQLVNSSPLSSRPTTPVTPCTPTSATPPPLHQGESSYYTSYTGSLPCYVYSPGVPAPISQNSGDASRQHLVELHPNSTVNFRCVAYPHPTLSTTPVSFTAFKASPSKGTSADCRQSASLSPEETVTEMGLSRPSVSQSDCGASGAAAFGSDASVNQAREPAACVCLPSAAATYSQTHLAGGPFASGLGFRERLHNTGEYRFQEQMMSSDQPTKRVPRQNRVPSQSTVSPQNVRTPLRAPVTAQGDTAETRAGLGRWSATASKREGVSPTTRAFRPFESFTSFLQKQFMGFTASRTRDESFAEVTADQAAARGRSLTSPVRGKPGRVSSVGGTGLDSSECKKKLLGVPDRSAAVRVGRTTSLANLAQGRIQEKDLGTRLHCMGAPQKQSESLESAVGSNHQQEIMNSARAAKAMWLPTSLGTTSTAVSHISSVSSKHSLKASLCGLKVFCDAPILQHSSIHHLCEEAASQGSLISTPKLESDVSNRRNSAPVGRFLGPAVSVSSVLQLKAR

This assay has as its target AC9 endogenously tagged with BirA* (AC9^BioID) (Toxoplasma gondii) (UniProt S7V0W9). The assay can be described thus: proximity labelling; AC9-BirA* parasites grown 24 h in 150 μM biotin; 1% Triton X-100 cytoskeletal fraction; streptavidin purification; LC-MS/MS.

No constants are given. Whether binding was seen depends on the method and setting. Binding seen in cells or lysates may run through a third protein. Here binding means that the protein was enriched with, or labelled near, the bait; the list need not be complete.

Consider “apical cap protein 10 (AC10; TGGT1_292950), endogenous in parasites (from UniProt Q1JT06)”, for which the binding result is recorded as “binds”.
